These are yes or no findings as the source states them, for the method shown. In cells and extracts the contact can be indirect. Some binding calls cover weakened binding; strength is not graded here. Tags and fused reporters may be left off the sequences shown.
Target: androgen receptor (AR), in vitro translated, 35S-methionine labeled (UniProt P10275)
Assay: co-immunoprecipitation with anti-JHDM2A antibody of 35S-labeled in vitro translated AR mixed with recombinant JHDM2A, with or without 100 nM R1881; autoradiography

Amino acid sequences for entries named in this document (tags omitted).
UniProt P10275: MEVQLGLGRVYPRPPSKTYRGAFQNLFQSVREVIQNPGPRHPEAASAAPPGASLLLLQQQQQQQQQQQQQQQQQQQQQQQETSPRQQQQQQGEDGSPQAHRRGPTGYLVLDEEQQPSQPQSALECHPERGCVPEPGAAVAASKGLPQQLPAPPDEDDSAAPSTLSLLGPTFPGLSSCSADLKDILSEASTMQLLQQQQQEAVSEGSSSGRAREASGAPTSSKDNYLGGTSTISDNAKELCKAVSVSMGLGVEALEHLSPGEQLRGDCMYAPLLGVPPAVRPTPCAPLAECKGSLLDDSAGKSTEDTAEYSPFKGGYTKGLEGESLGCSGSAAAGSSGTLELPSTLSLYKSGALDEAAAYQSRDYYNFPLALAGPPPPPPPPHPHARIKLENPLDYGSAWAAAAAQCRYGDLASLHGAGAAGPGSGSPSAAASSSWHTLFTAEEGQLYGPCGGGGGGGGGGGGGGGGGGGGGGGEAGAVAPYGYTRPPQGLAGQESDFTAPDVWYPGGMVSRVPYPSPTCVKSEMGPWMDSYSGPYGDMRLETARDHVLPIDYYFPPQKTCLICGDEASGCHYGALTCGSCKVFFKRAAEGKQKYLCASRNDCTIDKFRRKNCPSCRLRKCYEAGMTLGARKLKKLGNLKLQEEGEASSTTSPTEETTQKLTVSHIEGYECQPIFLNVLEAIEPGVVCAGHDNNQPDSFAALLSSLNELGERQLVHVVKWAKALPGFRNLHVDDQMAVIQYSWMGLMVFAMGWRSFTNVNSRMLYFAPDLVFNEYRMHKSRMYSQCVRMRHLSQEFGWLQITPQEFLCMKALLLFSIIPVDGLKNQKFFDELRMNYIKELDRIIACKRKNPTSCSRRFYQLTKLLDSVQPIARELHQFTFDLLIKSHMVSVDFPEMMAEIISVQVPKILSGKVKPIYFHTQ

- binding: binds
B1: recombinant Flag-JHDM2A (JmjC domain-containing histone demethylase 2A) (enzyme, not shown: small tags and cut ends)
chain: MVLTLGESWPVLVGRRFLSLSAADGSDGSHDSWDVERVAEWPWLSGTIRAVSHTDVTKKDLKVCVEFDGESWRKRRWIEVYSLLRRAFLVEHNLVLAERKSPEISERIVQWPAITYKPLLDKAGLGSITSVRFLGDQQRVFLSKDLLKPIQDVNSLRLSLTDNQIVSKEFQALIVKHLDESHLLKGDKNLVGSEVKIYSLDPSTQWFSATVINGNPASKTLQVNCEEIPALKIVDPSLIHVEVVHDNLVTCGNSARIGAVKRKSSENNGTLVSKQAKSCSEASPSMCPVQSVPTTVFKEILLGCTAATPPSKDPRQQSTPQAANSPPNLGAKIPQGCHKQSLPEEISSCLNTKSEALRTKPDVCKAGLLSKSSQIGTGDLKILTEPKGSCTQPKTNTDQENRLESVPQALTGLPKECLPTKASSKAELEIANPPELQKHLEHAPSPSDVSNAPEVKAGVNSDSPNNCSGKKVEPSALACRSQNLKESSVKVDNESCCSRSNNKIQNAPSRKSVLTDPAKLKKLQQSGEAFVQDDSCVNIVAQLPKCRECRLDSLRKDKEQQKDSPVFCRFFHFRRLQFNKHGVLRVEGFLTPNKYDNEAIGLWLPLTKNVVGIDLDTAKYILANIGDHFCQMVISEKEAMSTIEPHRQVAWKRAVKGVREMCDVCDTTIFNLHWVCPRCGFGVCVDCYRMKRKNCQQGAAYKTFSWLKCVKSQIHEPENLMPTQIIPGKALYDVGDIVHSVRAKWGIKANCPCSNRQFKLFSKPASKEDLKQTSLAGEKPTLGAVLQQNPSVLEPAAVGGEAASKPAGSMKPACPASTSPLNWLADLTSGNVNKENKEKQPTMPILKNEIKCLPPLPPLSKSSTVLHTFNSTILTPVSNNNSGFLRNLLNSSTGKTENGLKNTPKILDDIFASLVQNKTTSDLSKRPQGLTIKPSILGFDTPHYWLCDNRLLCLQDPNNKSNWNVFRECWKQGQPVMVSGVHHKLNSELWKPESFRKEFGEQEVDLVNCRTNEIITGATVGDFWDGFEDVPNRLKNEKEPMVLKLKDWPPGEDFRDMMPSRFDDLMANIPLPEYTRRDGKLNLASRLPNYFVRPDLGPKMYNAYGLITPEDRKYGTTNLHLDVSDAANVMVYVGIPKGQCEQEEEVLKTIQDGDSDELTIKRFIEGKEKPGALWHIYAAKDTEKIREFLKKVSEEQGQENPADHDPIHDQSWYLDRSLRKRLHQEYGVQGWAIVQFLGDVVFIPAGAPHQVHNLYSCIKVAEDFVSPEHVKHCFWLTQEFRYLSQTHTNHEDKLQVKNVIYHAVKDAVAMLKASESSFGKP

Source: patent publication US20160244802A1, “Protein Demethylases Comprising a JMJC Domain” (The University of North Carolina at Chapel Hill, priority 2005, published 2016)
